The record followed here is paper PMC7232412.

Sequences of proteins named here, by UniProt entry; tags and fusion partners are left off. A change or cut given only in a name is not applied to a line headed by its entry. A line that says so, or that is headed by a name, gives the form on record, which may keep a tag or linker.
UniProt Q99816: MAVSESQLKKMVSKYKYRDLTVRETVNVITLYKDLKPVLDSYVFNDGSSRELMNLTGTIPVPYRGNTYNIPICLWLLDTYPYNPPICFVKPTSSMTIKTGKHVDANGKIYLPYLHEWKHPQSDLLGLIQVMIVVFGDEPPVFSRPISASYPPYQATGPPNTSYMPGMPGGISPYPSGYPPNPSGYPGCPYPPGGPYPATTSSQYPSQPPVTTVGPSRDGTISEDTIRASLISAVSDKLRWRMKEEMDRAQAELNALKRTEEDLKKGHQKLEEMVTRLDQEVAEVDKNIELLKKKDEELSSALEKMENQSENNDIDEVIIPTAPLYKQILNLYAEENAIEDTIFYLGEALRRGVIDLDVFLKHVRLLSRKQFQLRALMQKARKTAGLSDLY
human Tsg101 KK9,10AA (Q99816, form named): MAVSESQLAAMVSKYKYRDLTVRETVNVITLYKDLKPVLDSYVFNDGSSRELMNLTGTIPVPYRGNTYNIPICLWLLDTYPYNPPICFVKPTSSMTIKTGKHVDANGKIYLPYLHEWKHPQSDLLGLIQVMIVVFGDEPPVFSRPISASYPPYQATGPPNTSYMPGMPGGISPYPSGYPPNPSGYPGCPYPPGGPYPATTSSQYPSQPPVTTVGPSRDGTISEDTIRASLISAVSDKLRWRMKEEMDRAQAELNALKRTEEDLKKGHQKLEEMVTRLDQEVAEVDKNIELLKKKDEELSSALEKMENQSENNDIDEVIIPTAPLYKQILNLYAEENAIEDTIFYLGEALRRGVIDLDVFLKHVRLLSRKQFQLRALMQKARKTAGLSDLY

These are yes or no findings as the source states them, for the method shown. Some binding calls cover weakened binding; strength is not graded here.

The assay addresses HIV-1 Gag p6 (pGBT p6) (HIV-1) (UniProt P04591). Kind of assay: two-hybrid.

For “human Tsg101 KK9,10AA (from UniProt Q99816 1-390)”, the binding entry is on record as “binds”.

Turning to “human Tsg101 wild-type (pGAD-hTsg101) (from UniProt Q99816 1-390)”, the binding result was “binds”.
